{"source": "PubChem BioAssay AID504791 (Drosophila RNAi Screening Center, 2011)", "test": "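Genes of the fly required for silencing by miRNA, siRNA or endo-siRNA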 (primary screen)", "cell system": "Drosophila S2-derived reporter cells", "reagent": "long dsRNA against Drosophila genes, about 150-250 ng dsRNA per well (siRNA assay); about 80-120 ng (miRNA assay)", "time to read-out": "about 5 days (siRNA assay); about 4 days (miRNA assay)", "conditions": "copper sulfate induction of reporters: 25 µM (siRNA assay); 200 mM stated (miRNA assay), 1-2 days before reading", "read-out": "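Dual luciferase assay: Renilla to firefly signal ratio in each well, scaled to the mean ratio of its plate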", "units": "stable assay Renilla, run 1 in luminescence; stable assay firefly, run 1 in luminescence", "hit rule": "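a well was a first-pass pick when its plate-scaled ratio rose above 1.5 (siRNA assay) or 1.6 (miRNA assay), or dropped below 0.6; a gene counted only if two separate dsRNAs agreed on retest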", "note": "The deposit covers about 23,000 reagents; below is a random part of those that have a named target and a result. Over the whole deposit, 199 (0.86%) were called active. 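Plate-scaled ratios behind the calls are not deposited; printed light signals are raw; many rows marked increased or decreased are still called inactive.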 Reagents against one gene are numbered here. Not stated in the record: the direction of the score."}
{"gene": "beta4GalNAcTA", "reagent no.": 1, "stable assay Renilla, run 1": 3511, "stable assay firefly, run 1": 3.85e5, "Outcome": "inactive"}
{"gene": "Obp57e", "reagent no.": 1, "stable assay Renilla, run 1": 8874, "stable assay firefly, run 1": 6.18e5, "Outcome": "inactive"}
{"gene": "CG10730", "reagent no.": 1, "stable assay Renilla, run 1": 6918, "stable assay firefly, run 1": 4.71e5, "Outcome": "inactive"}
{"gene": "SerRS", "reagent no.": 1, "stable assay Renilla, run 1": 8071, "stable assay firefly, run 1": 1.79e5, "Outcome": "inactive"}
{"gene": "CG14153", "reagent no.": 1, "stable assay Renilla, run 1": 5938, "stable assay firefly, run 1": 4.13e5, "Outcome": "inactive"}
{"gene": "CG14153", "reagent no.": 2, "stable assay Renilla, run 1": 4355, "stable assay firefly, run 1": 3.67e5, "Outcome": "inactive"}
{"gene": "Dredd", "reagent no.": 1, "stable assay Renilla, run 1": 8711, "stable assay firefly, run 1": 4.87e5, "Outcome": "inactive"}
{"gene": "CG34163", "reagent no.": 1, "stable assay Renilla, run 1": 6542, "stable assay firefly, run 1": 6.18e5, "Outcome": "inactive"}
{"gene": "CG13622", "reagent no.": 1, "stable assay Renilla, run 1": 7427, "stable assay firefly, run 1": 2.93e5, "Outcome": "inactive"}
{"gene": "Nmda1", "reagent no.": 1, "stable assay Renilla, run 1": 7774, "stable assay firefly, run 1": 3.65e5, "Outcome": "inactive"}
{"gene": "Naa35", "reagent no.": 1, "stable assay Renilla, run 1": 1.62e5, "stable assay firefly, run 1": 1.25e6, "Outcome": "inactive"}
{"gene": "Khc-73", "reagent no.": 1, "stable assay Renilla, run 1": 9872, "stable assay firefly, run 1": 4.03e5, "Outcome": "inactive"}

Limited to “stable assay Renilla, run 1” (2 entries from above):
CG14153 #2: 4355
Dredd: 8711
